Measurements reported in PubChem BioAssay AID1508588 (Peter MacCallum Cancer Centre, 2020)

Test: 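Genome-wide search for knock-downs that heighten vemurafenib action in melanoma cells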 (primary screen)
Cells: human WM266.4 melanoma cells (BRAF V600 mutant)
Knock-down reagent: siRNA pool against human genes, 40 nM
Timing: 96 h from transfection to read-out
Treatment: vemurafenib 300 nM (about IC25), added 48 h after transfection, for 48 h; comparison arm got DMSO vehicle only
Measured: 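Ratios to non-targeting siRNA for cell gain, counted as DAPI nuclei after minus before drug and averaged over two replicates, and for absorbance-read medium lactate per cell; both binned into fold-change classes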
Reading the numbers: cell gain with vemurafenib: higher = more cell gain than with non-targeting siRNA; lactate per cell with vemurafenib: higher = more lactate made per cell
Rule for the call: 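a knock-down counts as enhancing when its fold-change classes with vehicle and with vemurafenib, taken together, show a stronger drug effect on cell gain or lactate per cell; exact class pairs not stated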
Calls: active = enhances vemurafenib effect; inactive = no enhancement seen
This is one part, drawn at random, of about 18,000 reagents. Of all reagents, 790 (4.4%) are marked active. 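Calls rest on a combination of fold-change classes in drug and vehicle arms, not all shown here.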

Against OR2G3 (olfactory receptor family 2 subfamily G member 3) the deposit lists cell gain with vemurafenib 0.65; lactate per cell with vemurafenib 0.73; inactive.
Against KCNJ9 (potassium inwardly rectifying channel subfamily J member 9) the deposit lists cell gain with vemurafenib 1.1; lactate per cell with vemurafenib 0.66; inactive.
ATP10A (ATPase phospholipid transporting 10A (putative)) scored cell gain with vemurafenib 0.66; lactate per cell with vemurafenib 0.96; inactive.
With knock-down of IFITM2 (interferon induced transmembrane protein 2) the results were cell gain with vemurafenib 0.24; lactate per cell with vemurafenib 2.31; inactive.
Against FRMD5 (FERM domain containing 5), the values are cell gain with vemurafenib 0.24; lactate per cell with vemurafenib 2.9; inactive.
Against SYTL2 (synaptotagmin like 2), the values are cell gain with vemurafenib 0.06; lactate per cell with vemurafenib 2.16; inactive.
Knock-down of GPRIN2 (G protein regulated inducer of neurite outgrowth 2) gave: cell gain with vemurafenib 0.88; lactate per cell with vemurafenib 1.08; inactive.
FAM174A (family with sequence similarity 174 member A) showed cell gain with vemurafenib 0.61; lactate per cell with vemurafenib 0.5; inactive.
Depletion of SZRD1 (SUZ RNA binding domain containing 1) resulted in: cell gain with vemurafenib 0.37; lactate per cell with vemurafenib 1.27; inactive.
FOXS1 (forkhead box S1) showed cell gain with vemurafenib 0.16; lactate per cell with vemurafenib 1.05; inactive.
For MOS (MOS proto-oncogene, serine/threonine kinase) the deposit lists cell gain with vemurafenib 0.67; lactate per cell with vemurafenib 1.14; inactive.
Against SYPL1 (synaptophysin like 1), the values are cell gain with vemurafenib 0.88; lactate per cell with vemurafenib 0.64; inactive.
Against ARL11 (ARF like GTPase 11), the entry reads cell gain with vemurafenib 0.65; lactate per cell with vemurafenib 0.82; inactive.
For SYCP2L (synaptonemal complex protein 2 like), the entry reads cell gain with vemurafenib 0.66; lactate per cell with vemurafenib 0.68; inactive.
Silencing of HABP4 (hyaluronan binding protein 4) came out at: cell gain with vemurafenib 0.68; lactate per cell with vemurafenib 1.54; inactive.
After knock-down of DCUN1D1 (defective in cullin neddylation 1 domain containing 1), the record shows cell gain with vemurafenib 0.75; lactate per cell with vemurafenib 0.7; inactive.
With knock-down of RSRC1 (arginine and serine rich coiled-coil 1), the screen gave cell gain with vemurafenib 0.09; lactate per cell with vemurafenib 0.74; inactive.
After knock-down of CA3 (carbonic anhydrase 3), the record shows cell gain with vemurafenib 0.36; lactate per cell with vemurafenib 1.08; inactive.
ANKRD45 (ankyrin repeat domain 45) scored cell gain with vemurafenib 0.72; lactate per cell with vemurafenib 1.36; inactive.
CYP2C18 (cytochrome P450 family 2 subfamily C member 18) gave cell gain with vemurafenib 0.78; lactate per cell with vemurafenib 0.64; inactive.
Depletion of CALM1 (calmodulin 1) gave: cell gain with vemurafenib 0.09; lactate per cell with vemurafenib 1.63; inactive.
ZNF695 (zinc finger protein 695) showed cell gain with vemurafenib 0.53; lactate per cell with vemurafenib 1.02; inactive.
PCDH1 (protocadherin 1) scored cell gain with vemurafenib 1.04; lactate per cell with vemurafenib 0.8; inactive.
Silencing of SLC20A1 came out at: cell gain with vemurafenib 1.07; lactate per cell with vemurafenib 0.6; inactive.
Depletion of SH2B3 (SH2B adaptor protein 3) resulted in: cell gain with vemurafenib 0.55; lactate per cell with vemurafenib 1.81; inactive.
Against GRINA, the entry reads cell gain with vemurafenib 0.51; lactate per cell with vemurafenib 0.84; inactive.
Against CDC5L (cell division cycle 5 like) the deposit lists cell gain with vemurafenib 0.27; lactate per cell with vemurafenib 1.69; inactive.
Knock-down of SLC22A25 resulted in: cell gain with vemurafenib 0.41; lactate per cell with vemurafenib 1.12; inactive.
Silencing of MYH14 (myosin heavy chain 14) resulted in: cell gain with vemurafenib 0.32; lactate per cell with vemurafenib 0.62; inactive.
Against CLDN17 (claudin 17) the deposit lists cell gain with vemurafenib 0.59; lactate per cell with vemurafenib 1.07; inactive.
PFKL (phosphofructokinase, liver type) gave cell gain with vemurafenib 0.81; lactate per cell with vemurafenib 1.12; inactive.
Silencing of KLK7 (kallikrein related peptidase 7) resulted in: cell gain with vemurafenib 0.57; lactate per cell with vemurafenib 0.12; active.
CALML3 (calmodulin like 3) showed cell gain with vemurafenib 0.69; lactate per cell with vemurafenib 1.64; inactive.
IGF2R (insulin like growth factor 2 receptor) gave cell gain with vemurafenib 0.28; lactate per cell with vemurafenib 2.47; inactive.
CLCA2 (chloride channel accessory 2) gave cell gain with vemurafenib 0.59; lactate per cell with vemurafenib 0.87; inactive.
Knock-down of PRKAA1 (protein kinase AMP-activated catalytic subunit alpha 1) resulted in: cell gain with vemurafenib 0.61; lactate per cell with vemurafenib 0.88; inactive.
With knock-down of KEL (Kell metallo-endopeptidase (Kell blood group)), the record shows cell gain with vemurafenib 0.99; lactate per cell with vemurafenib 0.67; inactive.
After knock-down of SLC25A29, the screen gave cell gain with vemurafenib 0.96; lactate per cell with vemurafenib 0.74; inactive.
Knock-down of EIF1AD resulted in: cell gain with vemurafenib 0.76; lactate per cell with vemurafenib 1.17; inactive.
Silencing of METTL8 (methyltransferase 8, tRNA N3-cytidine) gave: cell gain with vemurafenib 0.47; lactate per cell with vemurafenib 0.6; inactive.
Depletion of ADAM28 (ADAM metallopeptidase domain 28) resulted in: cell gain with vemurafenib 0.96; lactate per cell with vemurafenib 0.6; inactive.
Against PRPF38A (pre-mRNA processing factor 38A), the values are cell gain with vemurafenib 0.22; lactate per cell with vemurafenib 1.19; inactive.
HCRTR1 (hypocretin receptor 1) showed cell gain with vemurafenib 0.47; lactate per cell with vemurafenib 1.14; inactive.
Against ZG16B (zymogen granule protein 16B), the values are cell gain with vemurafenib 0.37; lactate per cell with vemurafenib 2.03; inactive.
TMEM203 (transmembrane protein 203) scored cell gain with vemurafenib 0.12; lactate per cell with vemurafenib 1.7; inactive.
ZNRD2 (zinc ribbon domain containing 2) scored cell gain with vemurafenib 0.39; lactate per cell with vemurafenib 1.76; inactive.
For PRMT8 (protein arginine methyltransferase 8) the deposit lists cell gain with vemurafenib 0.71; lactate per cell with vemurafenib 0.26; inactive.
DGAT2L6 (diacylglycerol O-acyltransferase 2 like 6) showed cell gain with vemurafenib 0.59; lactate per cell with vemurafenib 1.09; inactive.
With knock-down of SCGB1D2 (secretoglobin family 1D member 2), the record shows cell gain with vemurafenib 0.37; lactate per cell with vemurafenib 1.02; inactive.
Knock-down of DRC2 (dynein regulatory complex subunit 2) came out at: cell gain with vemurafenib 0.42; lactate per cell with vemurafenib 2.29; inactive.
With knock-down of NUMA1 (nuclear mitotic apparatus protein 1), the record shows cell gain with vemurafenib 0.04; lactate per cell with vemurafenib 1.77; inactive.
Knock-down of CCDC83 (coiled-coil domain containing 83) resulted in: cell gain with vemurafenib 0.68; lactate per cell with vemurafenib 1.5; inactive.

Records listed above called active:
KLK7 (kallikrein related peptidase 7) — cell gain with vemurafenib: 0.57; lactate per cell with vemurafenib: 0.12; activity call: active
